Data taken from patent US20240287195A1.
These are yes or no findings as the source states them, for the method shown. Some results given as binding are weak or reduced against the parent protein; the word gives no strength. Each block holds one binder with its values, some of them ahead of it.

Columns and labels:
[1] = biological target: human galectin-9 on the cell surface (human) (UniProt O00182); assay: flow cytometry on cells of patient tumor-derived S2 and S3 fractions
[2] = biological target: human galectin-9 on the cell surface (human) (UniProt O00182); assay: flow cytometry, % Gal9+ of CD3+ cells, colorectal carcinoma biopsy, S3 fraction by the legend
[3] = biological target: human galectin-9 on the cell surface (human) (UniProt O00182); assay: flow cytometry, % Gal9+ of CD3+ cells, colorectal carcinoma biopsy, S2 fraction by the legend
[4] = biological target: human galectin-9 on the cell surface (human) (UniProt O00182); assay: flow cytometry, % Gal9+ of CD11b+ cells, colorectal carcinoma biopsy, S3 fraction by the legend
[5] = biological target: human galectin-9 on the cell surface (human) (UniProt O00182); assay: flow cytometry, % Gal9+ of EpCam+ cells, colorectal carcinoma biopsy, S3 fraction by the legend
[6] = biological target: human galectin-9 on the cell surface (human) (UniProt O00182); assay: flow cytometry, % Gal9+ of CD11b+ cells, colorectal carcinoma biopsy, S2 fraction by the legend
[7] = biological target: human galectin-9 on the cell surface (human) (UniProt O00182); assay: flow cytometry, % Gal9+ of EpCam+ cells, colorectal carcinoma biopsy, S2 fraction by the legend
[8] = biological target: human galectin-9 on the cell surface (human) (UniProt O00182); assay: flow cytometry, % Gal9+ of CD3+ cells, pancreatic adenocarcinoma biopsy, S3 fraction by the legend
[9] = biological target: human galectin-9 on the cell surface (human) (UniProt O00182); assay: flow cytometry, % Gal9+ of CD3+ cells, pancreatic adenocarcinoma biopsy, S2 fraction by the legend
[10] = biological target: human galectin-9 on the cell surface (human) (UniProt O00182); assay: flow cytometry, % Gal9+ of CD11b+ cells, pancreatic adenocarcinoma biopsy, S3 fraction by the legend
[11] = biological target: human galectin-9 on the cell surface (human) (UniProt O00182); assay: flow cytometry, % Gal9+ of EpCam+ cells, pancreatic adenocarcinoma biopsy, S3 fraction by the legend
[12] = biological target: human galectin-9 on the cell surface (human) (UniProt O00182); assay: flow cytometry, % Gal9+ of CD11b+ cells, pancreatic adenocarcinoma biopsy, S2 fraction by the legend
[13] = biological target: human galectin-9 on the cell surface (human) (UniProt O00182); assay: flow cytometry, % Gal9+ of EpCam+ cells, pancreatic adenocarcinoma biopsy, S2 fraction by the legend
[14] = biological target: human galectin-9 on the cell surface (human) (UniProt O00182); assay: flow cytometry, % Gal9+ of CD3+ cells, second pancreatic adenocarcinoma biopsy, S3 fraction by the legend
[15] = biological target: human galectin-9 on the cell surface (human) (UniProt O00182); assay: flow cytometry, % Gal9+ of CD3+ cells, second pancreatic adenocarcinoma biopsy, S2 fraction by the legend
[16] = biological target: human galectin-9 on the cell surface (human) (UniProt O00182); assay: flow cytometry, % Gal9+ of CD11b+ cells, second pancreatic adenocarcinoma biopsy, S3 fraction by the legend
[17] = biological target: human galectin-9 on the cell surface (human) (UniProt O00182); assay: flow cytometry, % Gal9+ of EpCam+ cells, second pancreatic adenocarcinoma biopsy, S3 fraction by the legend
[18] = biological target: human galectin-9 on the cell surface (human) (UniProt O00182); assay: flow cytometry, % Gal9+ of CD11b+ cells, second pancreatic adenocarcinoma biopsy, S2 fraction by the legend
[19] = biological target: human galectin-9 on the cell surface (human) (UniProt O00182); assay: flow cytometry, % Gal9+ of EpCam+ cells, second pancreatic adenocarcinoma biopsy, S2 fraction by the legend
[20] = biological target: cynomolgus galectin-9 CRD2 domain (cynomolgus monkey); assay: bead based binding
[21] = biological target: cynomolgus galectin-9 CRD2 domain (cynomolgus monkey); assay: in vitro
[22] = biological target: human galectin-9 on the cell surface (human) (UniProt O00182); assay: cell based binding
[23] = biological target: human galectin-9 on the cell surface (human) (UniProt O00182); assay: flow cytometry, surface staining of CRL-2134 cells against HEK-293 cells

binding [1]: binds
binding [2]: binds
binding [3]: binds
binding [4]: binds
binding [5]: binds
binding [6]: binds
binding [7]: binds
binding [8]: binds
binding [9]: binds
binding [10]: binds
binding [11]: binds
binding [12]: binds
binding [13]: binds
binding [14]: binds
binding [15]: binds
binding [16]: binds
binding [17]: binds
binding [18]: binds
binding [19]: binds
B1: G9.2-17 Fab (Fab, V domains shown)
VH: EVQLVESGGGLVQPGGSLRLSCAASGFTVSSSSIHWVRQAPGKGLEWVAYISSSSGYTYYADSVKGRFTISADTSKNTAYLQMNSLRAEDTAVYYCARYWSYPSWWPYRGMDYWGQGTLVTVSS
VL: DIQMTQSPSSLSASVGDRVTITCRASQSVSSAVAWYQQKPGKAPKLLIYSASSLYSGVPSRFSGSRSGTDFTLTISSLQPEDFATYYCQQSSTDPITFGQGTKVEIKR

binding [20]: binds
binding [21]: binds
binding [22]: binds
B2: G9.2-17 mIgG1 (mouse IgG1 version of G9.2-17) (antibody, V domains shown)
VH: B1 VH
VL: B1 VL

binding [21]: binds
binding [23]: binds
B3: G9.2-17 IgG4 (antibody, V domains shown)
VH: B1 VH
VL: B1 VL
